Measurements taken from patent US8216783B2, “Over-expression and mutation of a tyrosine kinase receptor FGFR4 in tumors” (The United States of America, as represented by the …, priority 2008, dated 2012).
At least one compound was matched to its structure with a doubt left.

What was measured:
FGFR4 = test: Western blot for FGFR4 expression after dox-induced FGFR4 shRNA; assay type: cell-based, human; conditions: RH30 TRB H11.5 cells with tetracycline-inducible FGFR4 shRNA, 25 nM dox, 48 hours
RH30 TRB H11.5 cells [1] = test: Metastasis and survival after intravenous injection of RH30 TRB H11.5 cells, Xenogen imaging; assay type: in vivo, SCID Beige mice
RH30 TRB H11.5 cells [2] = test: In vitro growth of RH30 TRB H11.5 cells with or without dox; assay type: cell-based, human; conditions: RH30 TRB H11.5, in vitro, 126 hours
Description: FIG. 13B is a plot of RH30 TRB H11.5 cell growth with or without 25 nM dox for 120 hours.
FIG. 13C is a plot of RH30TRB H11.5 cell number 13 days after treatment with or without 25 nM dox.
Human rhabdomyosarcoma cell line RH30 was retrovirally transduced with vectors containing tetracycline repressor protein and ecotropic receptor. A tetracycline inducible shRNA construct targeting FGFR4 ([…], SEQ ID NO: 44) was used to transduce these RH30 cells as described previously (Ngo et al. Nature 441:106-110, 2006). Transduced RH30 cells were then subcloned. The subclone with the highest FGFR4 knockdown in the presence of doxycycline (dox) was used for in vitro and in vivo studies. The subclone chosen was designated as RH30 TRB H11.5 and was further transduced with a retroviral vector encoding luciferase. RH30 TRB H11.5 cells treated with or without 25 ng/ml doxycycline for 48 hours were harvested for Western blot for FGFR4 expression.

RH30 TRB H11.5 cells [3] = test: Tumor growth after intramuscular injection of RH30 TRB H11.5 cells, Xenogen imaging; assay type: in vivo, SCID Beige mice
[4] = dox diet, 74 days post-injection

Compound: C[C@H]1c2cccc(O)c2C(=O)C2=C(O)[C@]3(O)C(=O)C(C(N)=O)=C(O)[C@@H](N(C)C)[C@@H]3[C@@H](O)[C@@H]21 [dox, doxycycline]
- FGFR4 expression (Western blot) (FGFR4): almost complete inhibition
- survival versus control diet fed mice (RH30 TRB H11.5 cells [1]; continuous dox diet): significantly better survival
- abdominal tumors versus control diet (RH30 TRB H11.5 cells [1]; [4]): smaller abdominal tumors
- pulmonary metastases versus control diet (RH30 TRB H11.5 cells [1]; [4]): reduced pulmonary metastases
- growth of the cells in presence or absence of dox (RT-CES MP) (RH30 TRB H11.5 cells [2]): no difference
- luminescent signal versus control diet (RH30 TRB H11.5 cells [3]; dox diet for 31 days): significantly lower signal
- visible tumors (RH30 TRB H11.5 cells [3]; dox diet, 31 days): did not have visible tumors
